{"source": "the supplement of paper PMC8728848", "binders": {"B1": {"name": "GS13971A-bth-447-22-447 (Bacteroides thetaiotaomicron) (protein)", "chain": "EDVDNERSKGMFSASQSGFSTIEVYDLGPLNKIDLSIAKAGLEDTGGTVTFSVEQSLLDSLNNADGTSYQLLPPECYTIENATYSVSPGGDRRVTGGSLVYDPHKIYNLCGFDELKYVLPLRVSSTGTPMNSDRTATLYGFIVKEAIVRLASTGGDFVVEGGTTTSPMNLDTEISFENEWDLTTSFATKGADYVDNYNSANSTYYIPLPSDFYTLPDVTIAKGKTTGGSAISLLGETLPPGNYLLPVSLGGLSGQGDASINIDKETVANYFVIKQGGPINRDHWTVTANTEEKTGEVSAAYPHNGQTISLIDGEINTFWHSKWQGGEVAPPYEIILDMGKENSVSQLGLIARQNALTSMNLEIYAGDDGETWNLIGKYFFDGSIKTEQMVPVKACDARWIRIYIPTLGSGSSVGHLAEIYVYGTDK"}}, "experiment_in_all_cases": "glycan array binding signal (z-score within array); higher = stronger binding", "settings_in_all_cases": "glycan notation: IUPAC condensed, linker removed", "key": {"Gal3S(b1-4)Glc": {"molecular_target": "Gal3S(b1-4)Glc", "in_short": "(§1)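 The Consortium for Functional Glycomics database supplied 3228 glycan arrays, of which those lacking an available protein sequence were dropped. The binding signal, a within-array Z-score, was averaged across arrays of the same protein sequence and across linkers. Negative scores can be read as non-binding.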"}, "Gal3S(b1-4)Glc6S": {"molecular_target": "Gal3S(b1-4)Glc6S", "in_short": "as §1"}, "Gal3S(b1-4)GlcNAc": {"molecular_target": "Gal3S(b1-4)GlcNAc", "in_short": "as §1"}, "[1]": {"molecular_target": "Gal3S(b1-4)[Fuc(a1-3)]Glc6S", "in_short": "as §1"}, "[2]": {"molecular_target": "Gal3S(b1-4)[Fuc(a1-3)]GlcNAc", "in_short": "as §1"}, "[3]": {"molecular_target": "Gal3S(b1-4)[Fuc(a1-3)]GlcNAc6S", "in_short": "as §1"}, "Gal3S4S(b1-4)GlcNAc": {"molecular_target": "Gal3S4S(b1-4)GlcNAc", "in_short": "as §1"}, "Gal3S6S(b1-4)GlcNAc": {"molecular_target": "Gal3S6S(b1-4)GlcNAc", "in_short": "as §1"}, "Gal3S6S(b1-4)GlcNAc6S": {"molecular_target": "Gal3S6S(b1-4)GlcNAc6S", "in_short": "as §1"}, "Gal4S(b1-4)GlcNAc": {"molecular_target": "Gal4S(b1-4)GlcNAc", "in_short": "as §1"}, "Gal4S6S(b1-4)GlcNAc": {"molecular_target": "Gal4S6S(b1-4)GlcNAc", "in_short": "as §1"}, "Gal6P(b1-4)GlcNAc": {"molecular_target": "Gal6P(b1-4)GlcNAc", "in_short": "as §1"}, "Gal6S(b1-3)GlcNAc": {"molecular_target": "Gal6S(b1-3)GlcNAc", "in_short": "as §1"}, "Gal6S(b1-3)GlcNAc6S": {"molecular_target": "Gal6S(b1-3)GlcNAc6S", "in_short": "as §1"}, "Gal6S(b1-4)Glc": {"molecular_target": "Gal6S(b1-4)Glc", "in_short": "as §1"}, "Gal6S(b1-4)Glc6S": {"molecular_target": "Gal6S(b1-4)Glc6S", "in_short": "as §1"}, "Gal6S(b1-4)GlcNAc": {"molecular_target": "Gal6S(b1-4)GlcNAc", "in_short": "as §1"}, "Gal6S(b1-4)GlcNAc6S": {"molecular_target": "Gal6S(b1-4)GlcNAc6S", "in_short": "as §1"}, "GalNAc(a1-3)Gal": {"molecular_target": "GalNAc(a1-3)Gal", "in_short": "as §1"}, "GalNAc(a1-3)GalNAc": {"molecular_target": "GalNAc(a1-3)GalNAc", "in_short": "as §1"}, "[4]": {"molecular_target": "GalNAc(a1-3)GalNAc(b1-3)Gal(a1-4)Gal(b1-4)Glc", "in_short": "as §1"}, "[5]": {"molecular_target": "GalNAc(a1-3)GalNAc(b1-3)Gal(a1-4)Gal(b1-4)GlcNAc", "in_short": "as §1"}, "GalNAc(b1-3)Gal": {"molecular_target": "GalNAc(b1-3)Gal", "in_short": "as §1"}, "[6]": {"molecular_target": "GalNAc(b1-3)Gal(a1-4)Gal(b1-4)GlcNAc", "in_short": "as §1"}, "[7]": {"molecular_target": "GalNAc(b1-3)Gal(a1-4)Gal(b1-4)GlcNAc(b1-3)Gal(b1-4)Glc", "in_short": "as §1"}, "[8]": {"molecular_target": "GalNAc(b1-3)Gal(a1-6)Gal(b1-4)Glc", "in_short": "as §1"}, "GalNAc(b1-3)GalNAc": {"molecular_target": "GalNAc(b1-3)GalNAc", "in_short": "as §1"}, "GalNAc(b1-3)GlcNAc": {"molecular_target": "GalNAc(b1-3)GlcNAc", "in_short": "as §1"}, "GalNAc(b1-4)Gal(b1-4)Glc": {"molecular_target": "GalNAc(b1-4)Gal(b1-4)Glc", "in_short": "as §1"}, "GalNAc(b1-4)GlcNAc": {"molecular_target": "GalNAc(b1-4)GlcNAc", "in_short": "as §1"}, "[9]": {"molecular_target": "GalNAc(b1-4)GlcNAc(b1-2)Man", "in_short": "as §1"}, "[10]": {"molecular_target": "GalNAc(b1-4)GlcNAc(b1-2)Man(a1-3)[GalNAc(b1-4)GlcNAc(b1-2)Man(a1-6)]Man(b1-4)GlcNAc(b1-4)GlcNAc", "in_short": "as §1"}, "[11]": {"molecular_target": "GalNAc(b1-4)GlcNAc(b1-3)GalNAc(b1-4)GlcNAc", "in_short": "as §1"}, "GalNAc(b1-4)GlcNAc6S": {"molecular_target": "GalNAc(b1-4)GlcNAc6S", "in_short": "as §1"}, "GalNAc(b1-6)GalNAc": {"molecular_target": "GalNAc(b1-6)GalNAc", "in_short": "as §1"}, "GalNAc3S(b1-4)GlcNAc": {"molecular_target": "GalNAc3S(b1-4)GlcNAc", "in_short": "as §1"}, "GalNAc3S(b1-4)GlcNAc3S": {"molecular_target": "GalNAc3S(b1-4)GlcNAc3S", "in_short": "as §1"}}, "note": "This is one part of the list.", "data": [{"binder": "B1", "values": [{"measurement": "glycan array binding signal (z-score)", "setting": "Gal3S(b1-4)Glc", "value": -0.609}, {"measurement": "glycan array binding signal (z-score)", "setting": "Gal3S(b1-4)Glc6S", "value": -0.714}, {"measurement": "glycan array binding signal (z-score)", "setting": "Gal3S(b1-4)GlcNAc", "value": 0.517}, {"measurement": "glycan array binding signal (z-score)", "setting": "[1]", "value": 0.93}, {"measurement": "glycan array binding signal (z-score)", "setting": "[2]", "value": 0.73}, {"measurement": "glycan array binding signal (z-score)", "setting": "[3]", "value": 0.338}, {"measurement": "glycan array binding signal (z-score)", "setting": "Gal3S4S(b1-4)GlcNAc", "value": 0.238}, {"measurement": "glycan array binding signal (z-score)", "setting": "Gal3S6S(b1-4)GlcNAc", "value": -0.552}, {"measurement": "glycan array binding signal (z-score)", "setting": "Gal3S6S(b1-4)GlcNAc6S", "value": 0.927}, {"measurement": "glycan array binding signal (z-score)", "setting": "Gal4S(b1-4)GlcNAc", "value": 0.498}, {"measurement": "glycan array binding signal (z-score)", "setting": "Gal4S6S(b1-4)GlcNAc", "value": 1.53}, {"measurement": "glycan array binding signal (z-score)", "setting": "Gal6P(b1-4)GlcNAc", "value": -0.674}, {"measurement": "glycan array binding signal (z-score)", "setting": "Gal6S(b1-3)GlcNAc", "value": -1.57}, {"measurement": "glycan array binding signal (z-score)", "setting": "Gal6S(b1-3)GlcNAc6S", "value": -0.017}, {"measurement": "glycan array binding signal (z-score)", "setting": "Gal6S(b1-4)Glc", "value": -0.281}, {"measurement": "glycan array binding signal (z-score)", "setting": "Gal6S(b1-4)Glc6S", "value": 0.797}, {"measurement": "glycan array binding signal (z-score)", "setting": "Gal6S(b1-4)GlcNAc", "value": 1.23}, {"measurement": "glycan array binding signal (z-score)", "setting": "Gal6S(b1-4)GlcNAc6S", "value": 0.453}, {"measurement": "glycan array binding signal (z-score)", "setting": "GalNAc(a1-3)Gal", "value": -1.72}, {"measurement": "glycan array binding signal (z-score)", "setting": "GalNAc(a1-3)GalNAc", "value": 1.7}, {"measurement": "glycan array binding signal (z-score)", "setting": "[4]", "value": 0.375}, {"measurement": "glycan array binding signal (z-score)", "setting": "[5]", "value": -0.299}, {"measurement": "glycan array binding signal (z-score)", "setting": "GalNAc(b1-3)Gal", "value": -0.007}, {"measurement": "glycan array binding signal (z-score)", "setting": "[6]", "value": 0.916}, {"measurement": "glycan array binding signal (z-score)", "setting": "[7]", "value": -0.815}, {"measurement": "glycan array binding signal (z-score)", "setting": "[8]", "value": -0.007}, {"measurement": "glycan array binding signal (z-score)", "setting": "GalNAc(b1-3)GalNAc", "value": -0.635}, {"measurement": "glycan array binding signal (z-score)", "setting": "GalNAc(b1-3)GlcNAc", "value": 0.465}, {"measurement": "glycan array binding signal (z-score)", "setting": "GalNAc(b1-4)Gal(b1-4)Glc", "value": 0.451}, {"measurement": "glycan array binding signal (z-score)", "setting": "GalNAc(b1-4)GlcNAc", "value": 2.92}, {"measurement": "glycan array binding signal (z-score)", "setting": "[9]", "value": -0.221}, {"measurement": "glycan array binding signal (z-score)", "setting": "[10]", "value": 5.75}, {"measurement": "glycan array binding signal (z-score)", "setting": "[11]", "value": -0.446}, {"measurement": "glycan array binding signal (z-score)", "setting": "GalNAc(b1-4)GlcNAc6S", "value": 0.547}, {"measurement": "glycan array binding signal (z-score)", "setting": "GalNAc(b1-6)GalNAc", "value": 0.689}, {"measurement": "glycan array binding signal (z-score)", "setting": "GalNAc3S(b1-4)GlcNAc", "value": 0.07}, {"measurement": "glycan array binding signal (z-score)", "setting": "GalNAc3S(b1-4)GlcNAc3S", "value": -0.349}]}]}
